Reference: PMC10366140
The exact form of at least one protein or probe is not confirmed.

System: apRAD51C (apCX3 core) + apXRCC3 (apCX3 core)
Experiment: EMSA
Details: no added nucleotide or Mg listed, 4 C; EMSA: 20 mM Tris pH 8.0, 150 mM KCl, 4 C 15 min, 1% agarose 0.5x TBE; recombinant protein; label: internal FAM on the 11th dT; single-stranded DNA

TTTTTTTTTTTTTTTTTTTTT [poly-21dT]: binds.
